Source: PubChem BioAssay AID743121 (NCATS, 2013)
Shown is an unselected part of about 26,000 deposited reagents. 167 of them (0.63%) count as active. 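Calls are per gene from RSA p-values that are not deposited; an individual active-marked siRNA can sensitise only weakly.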 Entries without a mark were called inactive. The numbers tell different reagents against one gene apart. Not all columns of the deposit are shown. Reagent sequences are not shown.

Assay: 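Partners whose loss is lethal together with topoisomerase I blockade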 (primary screen)
System: MDA-MB-231 cells, a human breast cancer line
Reagent: single siRNA against human genes, 20 nM siRNA (0.8 pmol per well)
Time to read-out: 120 h (drug added 48 h after transfection, read 72 h later)
Conditions: camptothecin 20 nM (about EC30) for 72 h; vehicle 0.1% DMSO in parallel plates
Measured: 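Cell viability by ATP luminescence (CellTiter-Glo) as % of non-targeting siRNA wells, and the log2 ratio of viability without drug over viability with camptothecin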
Scale: log2 vehicle/camptothecin viability: higher = stronger sensitisation to camptothecin; viability with camptothecin: higher = more viable cells
Active means: 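Each gene scored by redundant siRNA activity (RSA) over its individual siRNA ratios; a gene is called active at p < 0.001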

gene symbol | reagent | log2 vehicle/camptothecin viability | viability with camptothecin (% of control)
UGT1A1 (UDP glucuronosyltransferase family 1 member A1) | 1 | 0.136 | 70.2
UGT1A1 (UDP glucuronosyltransferase family 1 member A1) | 2 | 0.0832 | 89.3
UGT1A1 (UDP glucuronosyltransferase family 1 member A1) | 3 | -0.212 | 51.7
UGT1A1 (UDP glucuronosyltransferase family 1 member A1) | 4 | 0.585 | 14.6
GRK6 (G protein-coupled receptor kinase 6) | 1 | 0.482 | 51.8
GRK6 (G protein-coupled receptor kinase 6) | 2 | -0.635 | 32.8
GRK6 (G protein-coupled receptor kinase 6) | 3 | -0.121 | 88.5
GRK6 (G protein-coupled receptor kinase 6) | 4 | -0.364 | 77.9
GPR62 (G protein-coupled receptor 62) | 1 | -0.189 | 87.1
GPR62 (G protein-coupled receptor 62) | 2 | 0.109 | 80
GPR62 (G protein-coupled receptor 62) | 3 | -0.139 | 98.1
GPR62 (G protein-coupled receptor 62) | 4 | -0.508 | 39.3
GEMIN6 (gem nuclear organelle associated protein 6) | 1 | -0.0046 | 99.1
GEMIN6 (gem nuclear organelle associated protein 6) | 2 | 0.0903 | 60.1
GEMIN6 (gem nuclear organelle associated protein 6) | 3 | 0.158 | 50.4
GEMIN6 (gem nuclear organelle associated protein 6) | 4 | 0.317 | 62.4
ABCA8 (ATP binding cassette subfamily A member 8) | 1 | 0.151 | 73.9
ABCA8 (ATP binding cassette subfamily A member 8) | 2 | 0.114 | 83.5
ABCA8 (ATP binding cassette subfamily A member 8) | 3 | -0.287 | 108
ABCA8 (ATP binding cassette subfamily A member 8) | 4 | -0.0721 | 63.2
MAP2K4 (mitogen-activated protein kinase kinase 4) | 1 | -0.595 | 81.7
MAP2K4 (mitogen-activated protein kinase kinase 4) | 2 | -0.324 | 124
MAP2K4 (mitogen-activated protein kinase kinase 4) | 3 | -0.324 | 111
MAP2K4 (mitogen-activated protein kinase kinase 4) | 4 | -0.18 | 92.5
VARS1 (valyl-tRNA synthetase 1) | 1 | -0.522 | 45
VARS1 (valyl-tRNA synthetase 1) | 2 | -0.192 | 61.7
VARS1 (valyl-tRNA synthetase 1) | 3 | -0.438 | 71.7
TPMT (thiopurine S-methyltransferase) | 1 | -0.337 | 58.7
TPMT (thiopurine S-methyltransferase) | 2 | -0.328 | 110
TPMT (thiopurine S-methyltransferase) | 3 | -0.347 | 36.2

Part of the list above, limited to “log2 vehicle/camptothecin viability”:
VARS1 (valyl-tRNA synthetase 1) #3: -0.438
TPMT (thiopurine S-methyltransferase) #1: -0.337
TPMT (thiopurine S-methyltransferase) #2: -0.328
